Laboratory results from publication PMC10697958.
These are yes or no findings as the source states them, for the method shown. In cells and extracts the contact can be indirect. Some entries that bind do so weakly or less than the wild type.

Protein sequences, listed by entry. Tags and fused reporters are not part of them. Residues count along the entry.
UniProt O00206, residues 24-839: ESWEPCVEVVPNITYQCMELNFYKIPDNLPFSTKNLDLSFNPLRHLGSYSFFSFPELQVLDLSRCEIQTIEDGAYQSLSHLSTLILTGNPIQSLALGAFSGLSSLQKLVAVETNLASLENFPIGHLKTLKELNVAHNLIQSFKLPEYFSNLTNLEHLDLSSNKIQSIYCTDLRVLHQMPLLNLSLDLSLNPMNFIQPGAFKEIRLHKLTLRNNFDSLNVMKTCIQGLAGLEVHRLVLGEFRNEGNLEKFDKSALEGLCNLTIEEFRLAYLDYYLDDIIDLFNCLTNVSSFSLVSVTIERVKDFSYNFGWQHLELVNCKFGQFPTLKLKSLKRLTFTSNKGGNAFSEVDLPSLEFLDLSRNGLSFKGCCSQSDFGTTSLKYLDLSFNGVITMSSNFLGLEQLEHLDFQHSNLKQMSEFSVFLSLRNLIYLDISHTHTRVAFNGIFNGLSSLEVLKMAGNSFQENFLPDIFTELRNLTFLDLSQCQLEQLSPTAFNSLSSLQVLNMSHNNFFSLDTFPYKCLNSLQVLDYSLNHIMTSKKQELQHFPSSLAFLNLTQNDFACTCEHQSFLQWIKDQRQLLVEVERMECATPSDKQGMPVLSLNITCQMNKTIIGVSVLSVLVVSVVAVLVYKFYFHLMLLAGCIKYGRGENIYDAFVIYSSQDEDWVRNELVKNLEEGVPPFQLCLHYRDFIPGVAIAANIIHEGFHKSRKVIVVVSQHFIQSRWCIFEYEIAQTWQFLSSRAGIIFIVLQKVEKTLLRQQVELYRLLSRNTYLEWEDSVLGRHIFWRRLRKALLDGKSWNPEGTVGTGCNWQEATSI
UniProt P05387: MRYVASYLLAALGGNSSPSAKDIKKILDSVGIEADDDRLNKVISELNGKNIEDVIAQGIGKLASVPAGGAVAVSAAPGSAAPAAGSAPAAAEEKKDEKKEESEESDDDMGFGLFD

Molecular target: TLR4 (human (endogenous in Hep3B)) (UniProt O00206)
Assay: co-IP; endogenous proteins; Hep3B lysate in NP-40 lysis buffer with protease inhibitors incubated overnight at 4 °C with anti-TLR4 antibody (4 μg/ml) or control IgG, protein G/A beads 3 h at 4 °C, washed with precooled PBS; immunoblot for TLR4 and RPLP2

For “Acidic ribosome protein P2 (RPLP2) (from UniProt P05387 1-115)”, the binding was “binds”.
